The campaign covered roughly 340,000 compounds. About 170 (0.05%) were called active. Inconclusive results, whose numbers are uncertain, are shown with a selection of clear calls. Calls follow the shape of the dose curve; as a rule, active = well fitted inhibition curve with a large enough effect in the signal ratio, with a control signal flat (not every such curve was filed as active); inconclusive = small, poorly fitted or top-dose-only effect, or effect the other way, or a change in a side signal; inactive = flat fitted curve, though single readings scatter; the % refers to the signal ratio. Potencies beside an inconclusive call are fits to weak or partial responses and may not hold up.
Assay: qHTS Assay to Find Inhibitors of Chronic Active B-Cell Receptor Signaling;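 as to activity change, negative = inhibition: plate controls were basal doxycycline-induced cells for no effect and cells given 10 µM MG132 for full effect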
Settings: ABC-DLBCL IkBa-CBG/CBR reporter, luminescence ratio (green luciferase fused to IkBa over red control in TMD8 lymphoma cells), 4 h; activity change, negative = inhibition: at 46.1 µM (top of the series)
How it was run: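 Concentration-response series (up to 46 uM) were applied to TMD8 dual-reporter cells for 4 h at 37C with doxycycline. Green/red ratio, after filter-overlap correction, defined %Activity; red signal alone was normalised to basal cells and zero luminescence.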
Potency is read from the fitted curve at half-maximal effect.

Row | Compound | activity change, negative = inhibition | Potency
1 | CSc1nc2ccc(S(=O)(=O)NC3CCCCC3)cc2s1 | inconclusive: 16.2% | –
2 | Cc1cc(NS(=O)(=O)c2ccc(NC(=O)c3oc4ccccc4c3C)cc2)no1 | inconclusive: 23.4% | –
3 | COc1ccc(-c2sc3ccccc3c2C#CC2(O)CCCCC2)cc1 | – | inconclusive: 10 µM [rising, partial curve, poor fit]
4 | O=C(COc1ccccc1Cl)NCCC1=CCCCC1 | inconclusive: 9.76% | –
5 | O=C(CO/N=C/c1c(Cl)cccc1Cl)NNC(=O)c1ccc(Cl)cc1 | inconclusive: 2.95% | –
6 | CCCc1n[nH]c2c1C(=O)CC(C)(C)C2 | inactive | –
7 | CCCn1cc(SCC(=O)Nc2nnc(C)s2)c2ccccc21 | inactive | –
8 | O=C(Nc1nc2c(F)cccc2s1)C1CC1 | – | inconclusive: 0.631 µM [rising, partial curve, poor fit]
9 | Fc1c(F)c(-n2nnc3ccccc32)c(F)c(F)c1Cl | inconclusive: 0.0587% | –
10 | O=C(CSc1nc2[nH]ncc2c(=O)[nH]1)Nc1cccc(Cl)c1 | inconclusive: 2.41% | –
11 | COc1ccc(C(=O)Nc2cccc(C(=O)N/N=C/c3ccc(OC)cc3OC)c2)cc1 | – | inconclusive: 11.2 µM [falling, partial curve, poor fit]
12 | Cc1cccc(NC(=O)C(Cc2ccccc2)c2nn[nH]n2)c1C (stereo not given) | inconclusive: -26.8% | –
13 | CCN(CC(=O)Nc1cccc(OC)c1)c1ncnc2sc(C)c(C)c12 | – | inconclusive: 14.6 µM [falling, partial curve, poor fit]
14 | O=C(NC1CCCCC1)c1ccccc1NC(=O)C1CC(=O)N(c2ccc(Cl)cc2)C1 (stereo not given) | inactive | –
15 | Cc1cc(=O)[nH]c2nnc(SCc3cccc(F)c3)n12 | inconclusive: 17.5% | –
16 | Cc1cc(-n2c(C)cc(C(=O)CSc3ccc4c(c3)OCCO4)c2C)no1 | inactive | –
17 | Cc1ccc(NC(=O)COc2ccccc2)c(NC(=O)c2ccco2)c1 | inconclusive: 9.47% | –
18 | COc1ccc(NCc2ccc(OC)c(Cn3ccnc3)c2)c(OC)c1 | inactive | –
19 | CC(C)CN(c1ccccc1)S(=O)(=O)c1nnc(NC(=O)c2ccco2)s1 | inconclusive: 16.5% | –
20 | O=C1c2[nH]nc(-c3ccccc3O)c2C(c2cccc(Cl)c2)N1CC1CCCO1 (stereo not given) | – | inconclusive: 29.1 µM [falling, partial curve, poor fit]
21 | O=C(CSc1nnc(-c2ccc(O)cc2)n1Cc1ccccc1)NNC(=O)c1ccc(Br)cc1 | inactive | –
22 | O=C(Nc1ccccc1)Nc1cccc2nsnc12 | – | inconclusive: 31.6 µM [falling, single point]
23 | NS(=O)(=O)c1cccc(NC(=O)Nc2ccccc2)c1 | inconclusive: -18.1% | –
24 | COc1ccc(-c2ccc(NC(=O)c3ccco3)cc2)nn1 | – | inconclusive: 4.61 µM [falling, partial curve]
25 | COc1ccc(C(=O)Nc2cccc(/C(C)=N/NC(=O)c3ccc([N+](=O)[O-])cc3)c2)cc1OC | inactive | –
26 | CC1(C)Cc2nc3sc(C(=O)NCCCO)c(N)c3cc2CO1 | – | inconclusive: 35.5 µM [falling, single point]
27 | O=C1Nc2ccccc2/C1=C/c1cccnc1 | – | inconclusive: 12.6 µM [falling, partial curve, poor fit]

Two entries from above, as tab-separated lines:
Row	Compound	activity change, negative = inhibition	Potency
22	O=C(Nc1ccccc1)Nc1cccc2nsnc12	–	inconclusive: 31.6 µM [falling, single point]
23	NS(=O)(=O)c1cccc(NC(=O)Nc2ccccc2)c1	inconclusive: -18.1%	–

An excerpt taken from the entries so far:
Row | Compound | activity change, negative = inhibition | Potency
14 | O=C(NC1CCCCC1)c1ccccc1NC(=O)C1CC(=O)N(c2ccc(Cl)cc2)C1 (stereo not given) | inactive | –
15 | Cc1cc(=O)[nH]c2nnc(SCc3cccc(F)c3)n12 | inconclusive: 17.5% | –
16 | Cc1cc(-n2c(C)cc(C(=O)CSc3ccc4c(c3)OCCO4)c2C)no1 | inactive | –

Remaining list, next part.

Row | Compound | activity change, negative = inhibition | Potency
28 | CCOc1ccc(Sc2cc(C(=O)NCCc3ccc(OC)c(OC)c3)c3ccccc3n2)cc1 | inconclusive: 3.94% | –
29 | COc1cc(C(=O)NCc2cccc(Cl)c2)ccc1OCC(=O)N1CCOCC1 | – | inconclusive: 0.184 µM [falling, full curve, poor fit]
30 | CCOC(=O)c1ccc(N2C(=O)c3n[nH]c(C)c3C2c2ccc(OC)c(OC)c2)cc1 (stereo not given) | – | inconclusive: 14.6 µM [falling, partial curve]
31 | COc1ccc([N+](=O)[O-])cc1Nc1c2ccccc2nc2ccccc12 | – | inconclusive: 17.8 µM [falling, partial curve, poor fit]
32 | O=C1CCC(=O)N1CCCCCc1nc(-c2ccccc2)no1 | inconclusive: 1.38% | –
33 | CCN(CC)C(=O)COc1ccc(/C=C(\C#N)S(=O)(=O)c2ccccc2)cc1OC | inconclusive: -6.86% | –
34 | CCOC(=O)c1[nH]c(C)c(C(=O)Nc2ccccc2C)c1C | – | inconclusive: 16.4 µM [falling, partial curve, poor fit]
35 | CC(=O)N[C@H]1C[C@@H]1c1ccccc1 | inconclusive: -5.01% | –
36 | CC(C)(C)c1nnc(NC(=O)CCn2cnc3ccccc3c2=O)s1 | – | inconclusive: 20 µM [falling, partial curve, poor fit]
37 | NC(=O)NC(c1ccccc1)c1ccccc1F (stereo not given) | inconclusive: 2.05% | –
38 | CCOc1cccc(/C=N/NC(=O)c2cccnc2)c1O | inconclusive: -19.7% | –
39 | O=C(OCCOc1ccc(Br)cc1)c1ccc(Cl)c(S(=O)(=O)N2CCOCC2)c1 | inconclusive: -5.18% | –
40 | CCN(C(=O)c1cnc(NC(C)C)cc1C(F)(F)F)c1ccc(Cl)cc1Cl | – | inconclusive: 10 µM [falling, partial curve]
41 | O=C(NCc1cccc(C(F)(F)F)c1)c1ccc(=O)[nH]c1 | inactive | –
42 | CCCc1cc(=O)oc2c(C)c3occ(C)c3cc12 | inactive | –
43 | Cc1ccccc1NC(=O)c1cc2c(C)nc3ccccc3c2o1 | inconclusive: 0.302% | –
44 | N#Cc1ccccc1S(=O)(=O)N1CCN(C(=O)[C@@H]2CCCN2C(=O)c2cccs2)CC1 | inactive | –
45 | Cc1cccc(-c2cc3nc4c(c(NCc5ccco5)n3n2)CCCC4)c1 | – | inconclusive: 1 µM [falling, full curve, poor fit]
46 | CCCc1cc(=O)n2[nH]c(NC(=O)c3ccco3)nc2n1 | inconclusive: -29.4% | –
47 | O=C(N/N=C/c1ccccn1)c1ccncc1 | inconclusive: -9.58% | –
48 | N#Cc1nc(-c2cccc3ccccc23)oc1NCC#CCOC(=O)c1cccs1 | inactive | –
49 | O=C(O)C1CCCCC1C(=O)NCc1ccccc1 (stereo not given) | inconclusive: 8.95% | –
50 | O=C(Nc1ccc(Cl)cc1)C1C2C=CC3(O2)C1C(=O)N(CCCN1CCCCC1)C3C(=O)NC1CCCCC1 (stereo not given) | inactive | –
51 | CCNc1c(NS(=O)(=O)c2ccc(Br)s2)c(=O)oc2ccccc12 | – | inconclusive: 7.94 µM [falling, partial curve]
52 | CC1=C(C(=O)Nc2ccccc2)C(c2ccccc2[N+](=O)[O-])NC(=O)N1 (stereo not given) | – | inconclusive: 20 µM [falling, single point]
53 | CC1CCC2C(=O)N(c3cccc(C(=O)Nc4ccccc4Cl)c3)C(=O)C2C1 (stereo not given) | inactive | –
54 | CCOC(=O)C1CCN(C(=O)COc2ccc(Br)cc2)CC1 | – | inconclusive: 25.9 µM [rising, single point]

Row | Compound | activity change, negative = inhibition | Potency
55 | COc1ccc(-c2nc(NC(=O)C3CC(=O)N(Cc4ccco4)C3)sc2C)cc1 (stereo not given) | inconclusive: 5.77% | –
56 | O=C(COc1ccc2ccccc2c1Br)Nc1cccnc1 | inconclusive: 1.26% | –
57 | COc1cccc(NC(=O)c2cccc(C)c2[N+](=O)[O-])c1 | inconclusive: -6.88% | –
58 | Cc1onc(-c2ccccc2)c1C(=O)Nc1cccc2nsnc12 | inconclusive: 11.4% | –
59 | Cc1ccccc1-c1noc(N)c1C#N | – | inconclusive: 20.6 µM [falling, single point]
60 | O=C(O)c1cccc(S(=O)(=O)Nc2ccccc2Cl)c1 | inconclusive: 2.66% | –
61 | CCOc1ccc(-c2nnc(Nc3ccc(OC)c(C(=O)N4CCCCC4)c3)c3ccccc23)cc1 | inactive | –
62 | O=C(NCCNS(=O)(=O)c1ccc(Cl)cc1)c1cc(OCC(F)(F)F)ccc1OCC(F)(F)F | inconclusive: 5.67% | –
63 | CC(C)(C)OC(=O)N1CCC(NC(=O)c2ncn(Cc3ccccc3)c2C(=O)NC2CCN(C(=O)OC(C)(C)C)CC2)CC1 | inactive | –
64 | COc1ccc(S(=O)(=O)N2CCC(C(=O)Nc3nccs3)CC2)cc1 | inconclusive: 5.64% | –
65 | CCC(=O)N(NC1=NS(=O)(=O)c2ccccc21)S(=O)(=O)c1ccc(C)cc1 | inconclusive: -20.7% | –
66 | COCCN1CCc2[nH]c(=S)[nH]c(=O)c2C1 | inconclusive: -14.5% | –
67 | O=S(=O)(c1ccccc1)N(CC(O)Cn1c2ccccc2c2ccccc21)c1ccccc1 (stereo not given) | inconclusive: -7.51% | –
68 | Cn1c2c(c(=O)[nH]c1=O)C(c1ccc(O)cc1)C1=C(N2)c2ccccc2C1=O (stereo not given) | – | inconclusive: 35.5 µM [rising, single point]
69 | COc1ccc(OCC(=O)Nc2ccc(N3CCN(C(=O)c4ccccc4)CC3)c(Cl)c2)cc1 | inconclusive: -4.79% | –
70 | CCC(C)NCCC(=O)Nc1ccc(Cl)c(S(=O)(=O)Nc2ccc(Cl)cc2)c1 (stereo not given) | inconclusive: -1.43% | –
71 | O=C(CCSCc1ccccc1F)N1CCN(c2ccc(F)cc2)CC1 | inactive | –
72 | CC(C)(C)Nc1nc2cc([N+](=O)[O-])ccc2o1 | inconclusive: 8.94% | –
73 | NS(=O)(=O)c1cccc(NS(=O)(=O)c2ccc(/C=C/C(=O)O)cc2)c1 | inactive | –
74 | Cn1cc(C(=O)NCc2ccc(F)cc2)c(=O)c2cc(S(=O)(=O)N3CCCCC3)ccc21 | inconclusive: -0.0444% | –
75 | O=C(Nc1cccc(F)c1)Nc1cnccn1 | inactive | –
76 | COc1cccc(CNC(=O)c2cccc(NC3=NC4CS(=O)(=O)CC4S3)c2)c1 (stereo not given) | inactive | –
77 | Cc1nc2ccc(Cc3ccc4nc(C)[nH]c4c3)cc2[nH]1 | inconclusive: -26.7% | –
78 | Cc1cccc(CN2C(=O)/C(=C\c3ccc(C(=O)NCCCN4CCN(C)CC4)cc3)Oc3ccccc32)c1 | inconclusive: -1.43% | –
79 | O=[N+]([O-])c1ccc(N2CCN(c3ccccc3Cl)CC2)cn1 | inconclusive: 1.5% | –
80 | Cc1cc(Cl)ccc1OC(C)C(=O)Nc1ccc(C(=O)Nc2ccccc2C(=O)O)cc1 (stereo not given) | inconclusive: -0.251% | –

From PubChem BioAssay AID493014 (National Center for Advancing Translational Sciences (NCATS), 2011)
